According to publication PMC9981736:
No constants are given. Whether binding was seen depends on the method and setting.

Assays:
[1] = molecular target: Rec domain of CckA (CckA^Rec, residues 568-691) (Caulobacter crescentus) (UniProt Q9X688); experiment: crystal structure; X-ray, 1.25 Å, one molecule per asymmetric unit; 0.15 M KSCN, 0.1 M Na cacodylate pH 6.5, 20% v/v PEG 600, room temperature; both purified
[2] = molecular target: Rec domain of CckA (CckA^Rec, residues 568-691) (Caulobacter crescentus) (UniProt Q9X688); experiment: SEC-MALS; Superdex 200 10/300 Increase; loading concentrations 13.8, 6.9 and 3.5 mg/ml; 25 C; sample buffer; both purified
[3] = molecular target: BeF3^- bound (activated) CckA^Rec (Caulobacter crescentus) (UniProt Q9X688); experiment: NMR line widths (2D [15N,1H]-HSQC); 0.8 mM protein, 30 mM MES pH 6.8, 100 mM NaCl, 5 mM MgCl2, 25 C, 700 MHz; with and without bound BeF3^-; both purified

| Binder | binding [1] | binding [2] | binding [3] |
| --- | --- | --- | --- |
| Rec domain of CckA (CckA^Rec, residues 568-691) (domain or fragment, UniProt Q9X688 568-691) SGAGRILFVEDEDAVRSVAARLLRARGYEVLEAADGEEALIIAEENAGTIDLLISDVIMPGIDGPTLLKKARGYLGTAPVMFISGYAEAEFSDLLEGETGVTFLPKPIDIKTLAERVKQQLQAA | no binding | no binding (tested: around 1 mM) |  |
| BeF3^- bound (activated) CckA^Rec (domain or fragment, UniProt Q9X688 568-691, bound BeF3^- (beryllofluoride, phosphoryl-mimic); [U-15N,13C]-labeled) SGAGRILFVEDEDAVRSVAARLLRARGYEVLEAADGEEALIIAEENAGTIDLLISDVIMPGIDGPTLLKKARGYLGTAPVMFISGYAEAEFSDLLEGETGVTFLPKPIDIKTLAERVKQQLQAA |  |  | no binding (tested: 0.8 mM) |
